# Measured values from patent publication US8815919B2, “Oxadiazole derivatives” (Merck Serono SA, priority 2009, dated 2014).
# Chains of the proteins cited; added tags and fusions are not shown.
# UniProt Q99500, whole entry: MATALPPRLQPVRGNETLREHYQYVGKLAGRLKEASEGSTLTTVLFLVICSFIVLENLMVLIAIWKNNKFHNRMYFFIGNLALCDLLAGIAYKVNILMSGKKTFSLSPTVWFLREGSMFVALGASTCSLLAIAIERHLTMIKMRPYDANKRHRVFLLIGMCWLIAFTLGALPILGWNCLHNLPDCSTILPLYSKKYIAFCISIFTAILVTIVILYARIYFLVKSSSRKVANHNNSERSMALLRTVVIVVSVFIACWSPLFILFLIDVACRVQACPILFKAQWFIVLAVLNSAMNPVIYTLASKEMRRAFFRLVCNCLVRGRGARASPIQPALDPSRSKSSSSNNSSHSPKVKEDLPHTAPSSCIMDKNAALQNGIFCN
# UniProt P21453, whole entry: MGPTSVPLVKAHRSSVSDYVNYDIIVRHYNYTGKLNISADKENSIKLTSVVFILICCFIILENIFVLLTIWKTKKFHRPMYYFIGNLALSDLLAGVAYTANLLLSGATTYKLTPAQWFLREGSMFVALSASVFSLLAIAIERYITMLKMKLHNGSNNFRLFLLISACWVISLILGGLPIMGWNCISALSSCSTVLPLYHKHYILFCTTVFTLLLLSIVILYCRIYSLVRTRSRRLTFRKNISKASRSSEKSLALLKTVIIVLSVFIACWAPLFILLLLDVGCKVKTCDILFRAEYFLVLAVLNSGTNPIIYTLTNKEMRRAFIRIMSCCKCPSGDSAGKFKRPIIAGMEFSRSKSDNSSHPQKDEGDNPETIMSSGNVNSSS
# The structures given here were assigned with low confidence; some may be wrong.
# Key:
# S1P3 = S1P3 (Homo sapiens, UniProt Q99500); test: 35S-GTPγS binding on membranes of CHO cells expressing S1P3; conditions: read-out: S1P3/GTPG EC50, tested form: HCl
# S1P1 [1] = target: T1, S1P1 (Homo sapiens, UniProt P21453); test: Receptor binding assay, [33P]sphingosine 1-phosphate competition, S1P1 membranes, WGA SPA beads; conditions: read-out: S1P1 binding Ki (M) (96 well-plate), tested form: HCl
# S1P1 [2] = target: T1, S1P1; test: 35S-GTPγS binding on membranes of CHO cells expressing S1P1; conditions: read-out: S1P1/GTPG EC50, tested form: HCl
# S1P1 [3] = target: T1, S1P1; test: S1P1 internalization assay in S1P1-U2OS cells (S1P1-EGFP), cell imaging; conditions: read-out: S1P1 Internalization EC50, 1 hour incubation, tested form: HCl
compound,measurement,setting,value
CCc1ccccc1-c1ccc(-c2nc(-c3cccc(CN(C)CCC(=O)O)c3)no2)cc1COC,EC50,S1P3,317 nM
same,Ki,S1P1 [1],4.2e-10 M
same,EC50,S1P1 [2],0.893 nM
same,EC50,S1P1 [3],3.13 nM
